Data: patent US20240376517A1 (THE UNIVERSITY COURT OF THE UNIVERSITY OF EDINBURCH, priority 2021, published 2024)
Some peptides are written in HELM: one residue between dots, names in brackets for other building blocks, links after the first $.

Test: general procedure: peptide synthesis; 2-chlorotrityl chloride polystyrene resin; COMU/Oxyma/DIPEA
Conditions: whole synthesis

For “PEPTIDE1{[SulfoCy5].[Ile-3open].E.P.D.A.L.[PEG4-QSY21]}$$$$V2.0”, the “final HPLC purity” value was 99%.
